Assay results from publication PMC1064895.
Construct, isoform or probe ends are uncertain for at least one entry. Results from cells or extracts need not show a direct contact.

Tested on: NF-kB p65 + NF-kB p50
Experiment: EMSA supershift
Settings: nuclear extract, anti-CD3 + anti-CD28 stimulated RA PBMC, anti-p65 and anti-p50 each shift the band in separate lanes; 20 mM Tris-HCl pH 7.9, 50 mM KCl, 1 mM DTT, 0.5 mM EDTA, 5% glycerol, 1 mg/ml BSA, 0.2% NP-40, 50 ng/ul poly(dI-dC); 2 ug nuclear extract, 10 ng probe, 20 ul, 30 min; protein in an extract; label: 5'-32P on sense strand

“ATGACCTGGAAATACCCAAAATTC (double strand) [IL-17 promoter NF-kB site probe]”: binds.
